Test results reported in PMC10235086.
No constants are given. Whether binding was seen depends on the method and setting. Binding seen in cells or lysates may run through a third protein. A yes stands for co-enrichment or nearness to the bait. Other partners may have been found.

T1: ProteinA-Rio1 (S. cerevisiae) (UniProt Q12196)
T1 sequence: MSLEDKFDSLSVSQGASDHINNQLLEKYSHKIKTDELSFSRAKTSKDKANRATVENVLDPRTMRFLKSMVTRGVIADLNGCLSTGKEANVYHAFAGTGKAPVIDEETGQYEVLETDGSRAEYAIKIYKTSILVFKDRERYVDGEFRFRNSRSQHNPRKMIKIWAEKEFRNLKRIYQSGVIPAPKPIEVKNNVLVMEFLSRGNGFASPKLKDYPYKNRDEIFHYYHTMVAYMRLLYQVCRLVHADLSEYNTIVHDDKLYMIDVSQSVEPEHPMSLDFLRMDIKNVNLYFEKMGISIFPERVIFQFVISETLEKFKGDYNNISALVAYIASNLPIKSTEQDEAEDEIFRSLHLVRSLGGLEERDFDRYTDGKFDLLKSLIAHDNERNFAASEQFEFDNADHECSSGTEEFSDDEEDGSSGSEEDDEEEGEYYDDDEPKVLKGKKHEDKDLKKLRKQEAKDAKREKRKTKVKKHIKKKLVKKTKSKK

B1: Fun30 (protein, UniProt P31380 1-1131)
chain: MSGSHSNDEDDVVQVPETSSPTKVASSSPLKPTSPTVPDASVASLRSRFTFKPSDPSEGAHTSKPLPSGSPEVALVNLAREFPDFSQTLVQAVFKSNSFNLQSARERLTRLRQQRQNWTWNKNASPKKSETPPPVKKSLPLANTGRLSSIHGNINNKSSKITVAKQKTSIFDRYSNVINQKQYTFELPTNLNIDSEALSKLPVNYNKKRRLVRADQHPIGKSYESSATQLGSAREKLLANRKYGRHANDNDEEEEESMMTDDDDASGDDYTESTPQINLDEQVLQFINDSDIVDLSDLSDTTMHKAQLIASHRPYSSLNAFVNTNFNDKDTEENASNKRKRRAAASANESERLLDKITQSIRGYNAIESVIKKCSSYGDLVTSQMKKWGVQVEGDNSELDLMNLGEDDDDDNDDGNNDNNNSNNNNTAGADATSKEKEDTKAVVEGFDETSAEPTPAPAPAPVERETKRIRNTTKPKVVEDEDDDVDLEAIDDELPQSEHEDDDYEEEDEDYNDEEEDVEYDDGDDDDDDDDEFVATRKNTHVISTTSRNGRKPIVKFFKGKPRLLSPEISLKDYQQTGINWLNLLYQNKMSCILADDMGLGKTCQVISFFAYLKQINEPGPHLVVVPSSTLENWLREFQKFAPALKIEPYYGSLQEREELRDILERNAGKYDVIVTTYNLAAGNKYDVSFLKNRNFNVVVYDEGHMLKNSTSERFAKLMKIRANFRLLLTGTPLQNNLKELMSLLEFIMPNLFISKKESFDAIFKQRAKTTDDNKNHNPLLAQEAITRAKTMMKPFILRRRKDQVLKHLPPKHTHIQYCELNAIQKKIYDKEIQIVLEHKRMIKDGELPKDAKEKSKLQSSSSKNLIMALRKASLHPLLFRNIYNDKIITKMSDAILDEPAYAENGNKEYIKEDMSYMTDFELHKLCCNFPNTLSKYQLHNDEWMQSGKIDALKKLLKTIIVDKQEKVLIFSLFTQVLDILEMVLSTLDYKFLRLDGSTQVNDRQLLIDKFYEDKDIPIFILSTKAGGFGINLVCANNVIIFDQSFNPHDDRQAADRAHRVGQTKEVNITTLITKDSIEEKIHQLAKNKLALDSYISEDKKSQDVLESKVSDMLEDIIYDENSKPKGTKE
B2: Smc2 (protein, UniProt P38989 1-1170)
chain: MKVEELIIDGFKSYATRTVITDWDPQFNAITGLNGSGKSNILDAICFVLGIASMSTVRASSLQDLIYKRGQAGVTKASVTIVFDNTDKSNSPIGFTNSPQISVTRQVVLGGTSKYLINGHRAPQQSVLQLFQSVQLNINNPNFLIMQGKITKVLNMKPSEILSLIEEAAGTKMFEDRREKAERTMSKKETKLQENRTLLTEEIEPKLEKLRNEKRMFLEFQSTQTDLEKTERIVVSYEYYNIKHKHTSIRETLENGETRMKMLNEFVKKTSEEIDSLNEDVEEIKLQKEKELHKEGTISKLENKENGLLNEISRLKTSLSIKVENLNDTTEKSKALESEIASSSAKLIEKKSAYANTEKDYKMVQEQLSKQRDLYKRKEELVSTLTTGISSTGAADGGYNAQLAKAKTELNEVSLAIKKSSMKMELLKKELLTIEPKLKEATKDNELNVKHVKQCQETCDKLRARLVEYGFDPSRIKDLKQREDKLKSHYYQTCKNSEYLKRRVTNLEFNYTKPYPNFEASFVHGVVGQLFQIDNDNIRYATALQTCAGGRLFNVVVQDSQTATQLLERGRLRKRVTIIPLDKIYTRPISSQVLDLAKKIAPGKVELAINLIRFDESITKAMEFIFGNSLICEDPETAKKITFHPKIRARSITLQGDVYDPEGTLSGGSRNTSESLLVDIQKYNQIQKQIETIQADLNHVTEELQTQYATSQKTKTIQSDLNLSLHKLDLAKRNLDANPSSQIIARNEEILRDIGECENEIKTKQMSLKKCQEEVSTIEKDMKEYDSDKGSKLNELKKELKLLAKELEEQESESERKYDLFQNLELETEQLSSELDSNKTLLHNHLKSIESLKLENSDLEGKIRGVEDDLVTVQTELNEEKKRLMDIDDELNELETLIKKKQDEKKSSELELQKLVHDLNKYKSNTNNMEKIIEDLRQKHEFLEDFDLVRNIVKQNEGIDLDTYRERSKQLNEKFQELRKKVNPNIMNMIENVEKKEAALKTMIKTIEKDKMKIQETISKLNEYKRETLVKTWEKVTLDFGNIFADLLPNSFAKLVPCEGKDVTQGLEVKVKLGNIWKESLIELSGGQRSLIALSLIMALLQFRPAPMYILDEVDAALDLSHTQNIGHLIKTRFKGSQFIVVSLKEGMFANANRVFRTRFQDGTSVVSIM
B3: Brn1 (protein, UniProt P38170 1-754)
chain: MTTQLRYENNDDDERVEYNLFTNRSTMMANFEEWIKMATDNKINSRNSWNFALIDYFYDLDVLKDGENNINFQKASATLDGCIKIYSSRVDSVTTETGKLLSGLAQRKTNGASNGDDSNGGNGEGLGGDSDEANIEIDPLTGMPISNDPDVNNTRRRVYNRVLETTLVEFETIKMKELDQELIIDPLFKKALVDFDEGGAKSLLLNTLNIDNTARVIFDASIKDTQNVGQGKLQRKEEELIERDSLVDDENEPSQSLISTRNDSTVNDSVISAPSMEDEILSLGMDFIKFDQIAVCEISGSIEQLRNVVEDINQAKDFIENVNNRFDNFLTEEELQAAVPDNAEDDSDGFDMGMQQELCYPDENHDNTSHDEQDDDNVNSTTGSIFEKDLMAYFDENLNRNWRGREHWKVRNFKKANLVNKESDLLEETRTTIGDTTDKNTTDDKSMDTKKKHKQKKVLEIDFFKTDDSFEDKVFASKGRTKIDMPIKNRKNDTHYLLPDDFHFSTDRITRLFIKPGQKMSLFSHRKHTRGDVSSGLFEKSTVSANHSNNDIPTIADEHFWADNYERKEQEEKEKEQSKEVGDVVGGALDNPFEDDMDGVDFNQAFEGTDDNEEASVKLDLQDDEDHKFPIRENKVTYSRVSKKVDVRRLKKNVWRSINNLIQEHDSRKNREQSSNDSETHTEDESTKELKFSDIIQGISKMYSDDTLKDISTSFCFICLLHLANEHGLQITHTENYNDLIVNYEDLATTQAAS
B4: Smc4 (protein, UniProt Q12267 1-1418)
chain: MSDSPLSKRQKRKSAQEPELSLDQGDAEEDSQVENRVNLSENTPEPDLPALEASYSKSYTPRKLVLSSGENRYAFSQPTNSTTTSLHVPNLQPPKTSSRGRDHKSYSQSPPRSPGRSPTRRLELLQLSPVKNSRVELQKIYDRHQSSSKQQSRLFINELVLENFKSYAGKQVVGPFHTSFSAVVGPNGSGKSNVIDSMLFVFGFRANKMRQDRLSDLIHKSEAFPSLQSCSVAVHFQYVIDESSGTSRIDEEKPGLIITRKAFKNNSSKYYINEKESSYTEVTKLLKNEGIDLDHKRFLILQGEVENIAQMKPKAEKESDDGLLEYLEDIIGTANYKPLIEERMGQIENLNEVCLEKENRFEIVDREKNSLESGKETALEFLEKEKQLTLLRSKLFQFKLLQSNSKLASTLEKISSSNKDLEDEKMKFQESLKKVDEIKAQRKEIKDRISSCSSKEKTLVLERRELEGTRVSLEERTKNLVSKMEKAEKTLKSTKHSISEAENMLEELRGQQTEHETEIKDLTQLLEKERSILDDIKLSLKDKTKNISAEIIRHEKELEPWDLQLQEKESQIQLAESELSLLEETQAKLKKNVETLEEKILAKKTHKQELQDLILDLKKKLNSLKDERSQGEKNFTSAHLKLKEMQKVLNAHRQRAMEARSSLSKAQNKSKVLTALSRLQKSGRINGFHGRLGDLGVIDDSFDVAISTACPRLDDVVVDTVECAQHCIDYLRKNKLGYARFILLDRLRQFNLQPISTPENVPRLFDLVKPKNPKFSNAFYSVLRDTLVAQNLKQANNVAYGKKRFRVVTVDGKLIDISGTMSGGGNHVAKGLMKLGTNQSDKVDDYTPEEVDKIERELSERENNFRVASDTVHEMEEELKKLRDHEPDLESQISKAEMEADSLASELTLAEQQVKEAEMAYVKAVSDKAQLNVVMKNLERLRGEYNDLQSETKTKKEKIKGLQDEIMKIGGIKLQMQNSKVESVCQKLDILVAKLKKVKSASKKSGGDVVKFQKLLQNSERDVELSSDELKVIEEQLKHTKLALAENDTNMNETLNLKVELKEQSEQLKEQMEDMEESINEFKSIEIEMKNKLEKLNSLLTYIKSEITQQEKGLNELSIRDVTHTLGMLDDNKMDSVKEDVKNNQELDQEYRSCETQDESEIKDAETSCDNYHPMNIDETSDEVSRGIPRLSEDELRELDVELIESKINELSYYVEETNVDIGVLEEYARRLAEFKRRKLDLNNAVQKRDEVKEQLGILKKKRFDEFMAGFNIISMTLKEMYQMITMGGNAELELVDSLDPFSEGVTFSVMPPKKSWRNITNLSGGEKTLSSLALVFALHKYKPTPLYVMDEIDAALDFRNVSIVANYIKERTKNAQFIVISLRNNMFELAQQLVGVYKRDNRTKSTTIKNIDILNRT
B5: Ycs4 (protein, UniProt Q06156 1-1176)
chain: MSGFSLSEYLTKFQTTDRESYPRLQDPSRELNVIIDQLAVSPEQIDASPDSLEALIDLCHDFPHLTPKLQTQLSYLISSSLSNLSKDIKANLSSNVNFTEIGGLIPQWKRHLEEYGYLIQVLLTFLQDELHKVSSQSTNLNRSAKNSKNDSANVELFKRDCNQMENLLESITKLLEINLSKIFQTTPEKDLFIGLFTRPLFVLLEIEPVTKVSSLKMFIQRILAMCVKNHGQSSSIQSSLMTNLTYFLHLSVFNAELLKLLNDEYNYPQLTEDILKEISTRVFNAKDTTGPKAISNFLIKLSELSPGIMLRQMNLVITLLNNSSITLRCSVVEACGNIVAELAQDPQTMEHYKQQIAVLIELLEERFQDSNPYVRTKAIQGCSKICDLSSKFNKSKAKFTSLAVRSLQDRSSLVRRNSVKLLSKLLLKHPFKAIHGSQLRLSEWEEYLKGSESQLNSTLKKVESQETLNDTIERSLIEEEVEQDEGQCRTELEGSFNKSAELSRIENEVENINATNTSVLMKLKLMIVYYKDAISFIKEIHKSIELISNLLFSKNRNEVLESMDFLVLADAFDIELSEFGIKKMLHLVWMKGTNDEGTSISVHLIECYKQLFLTAPDSCNMQEKAAHIAKNLINLSIGASIADLASLEQLLGMMYEQKLIDQHVINILWAIYNSASKASMQKEQNVNNRDSEKGFSKEQIHGSIIILGMLSLADNEIALKGLESLLNIGLGAVGLKDLTLCRYSCLALERMVPKRSTIITKAINQELEDVAVKKLYAIIINYTKDNEYYPMCEQALSALFTISSKPDILATDLIREKTMMTFGKPEEEDSILSLEQSSRVVSLSQLLFIVGQVAIKTLVYLEKCEAEFKKRKIEAETRNGKVKNQGADVTNTTQDNGGDKELEMIGGTNEDDFTDAIQFVKENELLFGEKSILGKFCPIVEEIVSNSSRFSDPMLQRTATLCLEKLMCLSSKYCEKSLPLLITVMEKSPDPTIRSNAVLGLGDMAVCFNNLVDENTDYLYRRLHDENLMVQRTCLMTVTFLILAGQVKVKGQLGEMAKCLDNPDQGISDMCRLFFTELASKDNAIYNGFIDIFSNLSSDDLLGKESFKKIIKFLLTFIDKERHQKQLNEKLVGRLRKCETQKQWDDIAFVLNNLPYKNEDVTALLEQGFKVVSAKE

Target: T1, ProteinA-Rio1 (S. cerevisiae)
Experiment: affinity purification with mass spectrometry; ProteinA-Rio1 expressed from PGAL1-10 (2% galactose, 2 h) in pep4∆ yeast; cleared lysate (50 mM Tris-Cl pH 7.5, 10% glycerol, 150 mM NaCl, 1 mM DTT, 0.4% NP-40) on rabbit IgG agarose beads overnight at 4 °C; washed with PBS-T; on-bead digestion …; untagged Rio1 as negative control; three independent purifications

Row | binding | Binder
1 | binds | B1
2 | binds | B2
3 | binds | B3
4 | binds | B4
5 | binds | B5
